Measurements as given in PMC10183819.
Like-named read-outs stand apart in the source and are kept apart here. These are yes or no findings as the source states them, for the method shown. In cells and extracts the contact can be indirect. Here binding means that the protein was enriched with, or labelled near, the bait; the list need not be complete. For some assays here: A no says only that the protein was not detected with the bait. Tags and fused reporters may be left off the sequences shown.

T1: TFIIA-L-AID-3xFLAG (endogenously C-terminally tagged TFIIA-L) (D. melanogaster (endogenous in S2 cells)) (UniProt P52654)
T1 sequence: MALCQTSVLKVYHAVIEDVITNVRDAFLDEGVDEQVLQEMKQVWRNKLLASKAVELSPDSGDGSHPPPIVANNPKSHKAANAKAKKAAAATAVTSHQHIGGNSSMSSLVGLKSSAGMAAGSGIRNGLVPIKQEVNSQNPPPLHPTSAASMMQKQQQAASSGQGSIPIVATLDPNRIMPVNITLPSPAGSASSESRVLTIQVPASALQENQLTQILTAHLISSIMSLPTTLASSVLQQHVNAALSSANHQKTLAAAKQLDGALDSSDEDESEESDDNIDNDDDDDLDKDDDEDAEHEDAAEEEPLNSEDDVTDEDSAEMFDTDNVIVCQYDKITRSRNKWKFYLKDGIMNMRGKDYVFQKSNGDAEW


Columns and labels:
[1] = biological target: T1, TFIIA-L-AID-3xFLAG (endogenously C-terminally tagged TFIIA-L) (D. melanogaster (endogenous in S2 cells)); experiment: affinity purification with mass spectrometry; anti-FLAG M2 magnetic beads with 1 mg nuclear lysate (nucleoplasm plus sonicated chromatin fraction) of the TFIIA-L-AID-3xFLAG S2 line, overnight at 4°C, washes with 150 mM NaCl IP lysis buffer; control: parental Tir1-expressing line; three replicates; label-free quantification
[2] = biological target: T1, TFIIA-L-AID-3xFLAG (endogenously C-terminally tagged TFIIA-L) (D. melanogaster (endogenous in S2 cells)); experiment: as above; remark: listed apart in the source

Molecule	binding [1]	binding [2]
Chromator (D. melanogaster (endogenous in S2 cells))	binds	–
DREF (D. melanogaster (endogenous in S2 cells))	binds	–
TFIIE (D. melanogaster (endogenous in S2 cells)) (complex)	binds	–
TATA-binding protein (TBP) (protein, UniProt P20227 1-353) MDQMLSPNFSIPSIGTPLHQMEADQQIVANPVYHPPAVSQPDSLMPAPGSSSVQHQQQQQQSDASGGSGLFGHEPSLPLAHKQMQSYQPSASYQQQQQQQQLQSQAPGGGGSTPQSMMQPQTPQSMMAHMMPMSERSVGGSGAGGGGDALSNIHQTMGPSTPMTPATPGSADPGIVPQLQNIVSTVNLCCKLDLKKIALHARNAEYNPKRFAAVIMRIREPRTTALIFSSGKMVCTGAKSEDDSRLAARKYARIIQKLGFPAKFLDFKIQNMVGSCDVKFPIRLEGLVLTHCNFSSYEPELFPGLIYRMVRPRIVLLIFVSGKVVLTGAKVRQEIYDAFDKIFPILKKFKKQS	–	no binding
nucleolar protein Nnp1 (protein, UniProt Q9VJZ7 1-687) MVTRKKPVKRNAEAAEIQVEQEEDASQPKVAKELMVVAQEVKIIRALACNDVVERNRQIRILRKWFKARAGSSFPFNEDDFMRIWKGLYYTMWMSDKPLVQEELAEKLAQMVDSFGGNTACSLAYFSAFMRTMCQEYFGIDQWRMDKFLMLTRRMVRYLLRFLKQNNWNADLIAAFNSSMQLSVMSEQPKSRGMTMHYLDVFFEELAKAANGEITAAQVNMFLRPFVTYIATQRDAKLVAQCRTRVLYHLMYQSDLGRQYSEKYNAWKQMGFPTASIDDIEKLDSGFDEEDDEVNAEEEQPRATSLDPRAGNVDVHMPELPLNADCVLDELQTQLRTNDFNSKRRKGLRKLIQIFETYQRGEFPLGVRTMPKVEGQTLSEMVEQKVAALDKMEDEVFATGRKLKKLNKSKRKRLLQSINFEEVDEHNYDEVISKALPPELQKKVNYNAKVRSSINNAWVVEEVKEAEPKSKKAKKEEPPQQNKDDQTKVKKKSQLKPKNDQSKPKIEDQPTLKAEKEEPAKRKKLDHSKTKEEQSKPKTDEQPKPTPKVEGQSKAKPTPKTKAAGVDDDAPTNGWDAPLEDGEQDIFVPSRKLQVKQANSKLPQSTPKQPARAEFATPQTGSGKHVRIVTKSNCIYPKSDYYRQLKLSPQVPYDANRLPGKSALKPHWIPGPIHPSYKAKRLFNDTL	–	binds

Other lines, results leading:

binding [1]	binding [2]	Molecule
binds	–	GFZF (D. melanogaster (endogenous in S2 cells))
binds	–	TRF2 (TBP-related factor 2) (D. melanogaster (endogenous in S2 cells))
–	binds	RNA helicase CG8611 (protein, UniProt Q86B47 1-975) MVENISLNVTVKSSARKNQQQSPALSVKKRAQKSQDFDFQFNVDKPKVKAIVVRRRAPPSKVEPTNSSVPNTTKSPTPSVSSSKSAISTLSASPKANASNDDLMFNVSPTKPPVKSVLGDDFMLNVTTKPVVAQKAKPKITRAERLGKKQRQGKPLTKLSEEQITRALKSNKKPKNPNQLPTPGDLFRAQLEEERRQKRREEGGGDQEASADEEDAKNNSGGGSPRVKPSSAVKESKKSSDIEDSGESGEESATSDEEPDESSAQSPGQEKEPKQTAKKPPKAEETSSTNRFRTKKIGLFDQSDVEALKQLGQRAVKPVKETIFTGSKISTLGLHPHAVKNLEDLLSIRELTSVQQKTIPEVLQGKDVLVRSQTGSGKTLAYALPLVELLQKQQPRIQRKDGVLALVIVPTRELVMQTYELIQKLVKPYTWIVPGSLLGGESRKSEKARLRKGINILIGTPGRLVDHLLHTASFKLTKLQFLILDEADRLLELGYERDVKQLVEAIDKQRAECEDKELPQLQRMLLSATLTSQVQQLAGLTLKNPLYIDNSDEAASAALKSKDGYQKETIEALLEVDDGLGEYQEDVTGVLSIPENLQLSYVVVPPKLRLVALSSLLAKEVDASPKQFKAIVFMSTTEMVNFHHDMLNEALTRRVLDEEDEQEKGDSDDDGDIPLLQGLRFFKLHGSMTQTERQGVFRGFRDCASCVLLATDVVGRGIDVPDIKLVVQYTPPQTTADFVHRVGRTARAGRKGRAVLFLTPSEAQFVRHLEKKRIRIQQGDMYAYLQTLLPKDDEARTVQEAASNLQHKFQTLLEDDRELHDKSCKAFVSWMKFYSTFPKELKPIFNVRIAHMGHFAKSFALKEAPSKFAAKHAAPKAAPPTNRLTYTERDPEKIQAQKRAKRRFTTTVSGEVRQLQQRDVGAQKPGAPPPKGGFIGGGVGRSSFMKSLGKSRALNMSEFDSGLPPEGAAKRRKQA
